Experimental findings from PMC6769007 are described below.

In the assay the target is T1, Flag-TRIM71 (human) (UniProt Q2Q1W2).
T1 sequence: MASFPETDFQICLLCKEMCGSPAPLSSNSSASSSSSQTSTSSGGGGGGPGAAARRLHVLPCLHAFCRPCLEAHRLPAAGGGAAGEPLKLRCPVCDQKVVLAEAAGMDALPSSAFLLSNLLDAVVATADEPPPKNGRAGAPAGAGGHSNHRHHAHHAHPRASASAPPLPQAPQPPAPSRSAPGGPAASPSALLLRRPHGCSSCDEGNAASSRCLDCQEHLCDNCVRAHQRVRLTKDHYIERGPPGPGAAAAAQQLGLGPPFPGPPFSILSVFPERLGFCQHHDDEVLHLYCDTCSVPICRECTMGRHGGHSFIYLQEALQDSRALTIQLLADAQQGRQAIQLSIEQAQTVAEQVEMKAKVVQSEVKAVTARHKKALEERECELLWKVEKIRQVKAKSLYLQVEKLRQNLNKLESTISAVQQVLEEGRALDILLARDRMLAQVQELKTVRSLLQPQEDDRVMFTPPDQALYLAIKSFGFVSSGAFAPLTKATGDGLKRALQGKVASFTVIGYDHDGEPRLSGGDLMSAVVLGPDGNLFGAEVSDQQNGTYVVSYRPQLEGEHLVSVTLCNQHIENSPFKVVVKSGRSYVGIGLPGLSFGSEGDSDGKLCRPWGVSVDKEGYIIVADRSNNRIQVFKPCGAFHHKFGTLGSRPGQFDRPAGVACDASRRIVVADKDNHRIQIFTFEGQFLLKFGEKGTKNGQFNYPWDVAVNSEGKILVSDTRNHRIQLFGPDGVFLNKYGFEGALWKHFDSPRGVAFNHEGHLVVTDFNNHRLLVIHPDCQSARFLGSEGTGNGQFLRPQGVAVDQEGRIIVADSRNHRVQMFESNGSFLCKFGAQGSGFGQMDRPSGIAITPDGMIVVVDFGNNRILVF
Briefly: co-IP; reverse co-IP with the anti-Flag antibody (Fig. 1c); HCT116 p53-/- cells transfected with Flag-TRIM71 and mtp53s or wtp53.

These are yes or no findings as the source states them, for the method shown. Binding seen in cells or lysates may run through a third protein. Some binding calls cover weakened binding; strength is not graded here. Sequences can lack the tags named with a protein.

For the substance “wild-type p53 (exogenous) (from UniProt P04637 1-393)”, the binding entry is recorded as “binds weakly”.
